According to patent EP0702551B1, “COMPOSITIONS AND METHODS FOR REPARATION AND PREVENTION OF FIBROTIC LESIONS” (MARGOLIN, Solomon B., priority 1993, dated 1994):
Marks after values point to notes of the source that are not given here.

Tested on: CYCLOPHOSPHAMIDE-INDUCED IN[…]
Test: Cyclophosphamide-induced interstitial fibrosis in mice
Type: in vivo
Conditions: GROUP IV: 500 mg/kg/day p.o., saline, no cyclophosphamide
Text: In mice, pulmonary fibrosis induced with cyclophosphamide […] and is know to produce pulmonary fibrosis in patients as a side effect.

Q: What does the source list for `Cc1ccc(=O)n(-c2ccccc2)c1` [pirfenidone, 5-methyl-1-phenyl-2-(1H) pyridone]?
A: Lung Dry Wt.: 39.0+/-2.8** Mg.; Lung FIBROSIS Scores (N/N), incidence of scores 3.0 or less: 5/5; Lung FIBROSIS Scores (scoring 0 through 6): 0.68+/-0.35
